Part of at least one peptide drawing is inferred or uncertain, most often the ends. Where no end group is shown, it is not given here.
Biological target: T1, Gi2 (Bos taurus, UniProt A7MBH9)
T1 construct: trimeric Gi2 (i.e., Gi2 αβγ) purified from bovine brain to near homogeneity; from tissue; host or cells: bovine brain
Assay: GTPγS binding assay, peptide 14-induced Gi2 activation
Assay type: biochemical, bovine
Description: Materials and Methods The in vitro assays described below utilize the couplone portion of each of a number of G-coupled receptors, instead of an intact receptor molecule, as a means for activating the corresponding anticouplone or intact G-protein. Except as noted below, Gi2 used in this study was trimeric Gi2 (i.e., Gi2 αβγ) purified from bovine brain to near homogeneity (Katada et al., FEBS Lett. 213:353-358 (1987), stored in buffer A (20 mM hepes/NaOH (pH 7.4), 1 mM EDTA, and 0.7% CHAPS), and diluted≥10 fold for assays. The Gi2 used for the reconstitution experiment was trimeric Gi2 purified from bovine spleen to homogeneity and dissolved in buffer B (Morishita et al., 1989). Gi3 α (Morishita et al., Biochem. Biophys. Res. Commun. 172:249-255 (1990), was purified from bovine spleen and used in combination with 1.5-fold concentrated Gβγ (Katada et al., 1987). This preparation of Gi3 α was 10-20% contaminated by Gi1 α, but not by other G proteins. Trimeric Gs and Gβγ purified from bovine brain to near homogeneity (Katada et al., 1987) were also stored in buffer A.
GTPγS binding Assay--GTPγS binding to G proteins was assayed at 37° C. in 20 mM Hepes/NaOH buffer (pH 7.4) containing 130 μM MgCl2, 110 μM EDTA and 60 nM [^35 S]GTPγS, as described previously (Okamoto et al., 1990). GTPγS binding to polypeptides was negligible. The total amount of G protein was measured as maximal GTPγS binding at room temperature, as described (Okamoto et al., Cell 67:723-730, 1991a). [^35 S]GTPγS was purchased from DuPont-New England Nuclear. Binding of GTPγS to G proteins obeyed first-order kinetics according to the equation ln[(BT-B)/BT]=-kapp t, where B is the binding at time t and BT is the total binding observable at an infinite time. Thus, the apparent first-order rate constant for GTPγS binding (kapp), which is equal to the slope of the tangent to the GTPγS binding curve at time 0 and represents the actual GTPγS binding rate, was calculated from this equation.
In the experiment illustrated in FIG. 1A, 10 nM Gi2 was incubated with 30 μM peptide 14 (RVGLVRGEKARKGK; SEQ ID NO: 27), the couplone portion of the IGF-II receptor, in the presence of various concentrations of (.quadrature.) ACGi2 (DAVTDVIIKNNLKDC; SEQ ID NO: 3), (567 ) the control Gi2 α Glu297-Asp310 peptide (EAASYIQSKFEKLN; SEQ ID NO: 18), or (.diamond.) the control Gi2 α Lys346-Phe355 peptide (KNNLKDCGLF; SEQ ID NO: 19) for 5 min under the GTPγS binding assay conditions described above, and GTPγS binding to G proteins was measured. The effect of ACGi2 on Gi2 in the absence of peptide 14 is indicated by .box-solid.. Percent stimulation of GTPγS binding was calculated by subtracting the basal fractional binding and dividing by the stimulated fractional binding observed in the absence of ACGi2. The basal fractional binding (=0%) was 0.39 mol GTPγS binding/mol Gi /5 min (5 min^-1). The 100% increase represents the GTPγS binding of 0.85 (5 min^-1). Values in all figures represent the mean ±S.E. of three experiments.
To verify the notion that ACGi2 acts on Gi2 itself, and not on receptor sequences, two series of experiments were performed. First, the dose-response curve for peptide 14 action on Gi2 in the presence of various concentrations of ACGi2 was generated (FIG. 2A). Following incubation of 10 nM Gi2 with various concentrations of peptide 14 in the absence (.quadrature.) or presence of 10 μM (.diamond-solid.) or 30 μM (.box-solid.) ACGi2 for 5 min, GTPγS binding was assayed; fractional GTPγS binding to Gi2 is indicated in the figure.
The second series of experiments investigated the effect of ACGi2 on lower concentrations of Gi2 that had been activated by peptide 14 to the same extent (FIG. 2B). 1 nM Gi2 was incubated for 5 min with 3 μM peptide 14 in the presence of various concentrations of ACGi2, and GTPγS binding was measured. The fractional GTPγS binding at 0% and 100% in this experiment was 0.40 and 0.55 (5 min^-1), respectively. […]

By UniProt entry, the sequences of proteins in these tests, tags left out. Residues count along the entry.
UniProt A7MBH9, 2-355 limits assumed: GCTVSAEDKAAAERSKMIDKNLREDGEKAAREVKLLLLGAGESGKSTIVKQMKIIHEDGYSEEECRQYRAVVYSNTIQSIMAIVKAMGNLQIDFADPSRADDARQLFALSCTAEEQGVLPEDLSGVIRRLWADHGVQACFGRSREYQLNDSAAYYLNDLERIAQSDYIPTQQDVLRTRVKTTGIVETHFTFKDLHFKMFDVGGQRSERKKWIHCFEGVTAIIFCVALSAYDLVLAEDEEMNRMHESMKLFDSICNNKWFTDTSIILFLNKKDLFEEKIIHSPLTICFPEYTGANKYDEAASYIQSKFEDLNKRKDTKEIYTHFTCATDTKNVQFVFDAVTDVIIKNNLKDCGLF

Row | Sequence | effect on peptide 14-induced Gi2 activation (concentrations ranging up to 100 μM, data not shown) | efficacy of peptide 14 action on Gi2 as ACGi2 concentration increased (10 nM Gi2, various peptide 14 concentrations, 10 μM or 30 μM ACGi2, 5 min) | inhibition of GTPγS binding to Gi2 in the presence of peptide 14 (30 μM ACGi2, 10 nM Gi2, 30 μM peptide 14) | effect on GTPγS binding to Gi2 in the absence of peptide 14 (no peptide 14, 10 nM Gi2) | order of antagonizing effect on Gi protein activation (peptide 14-induced activation of Gi1, Gi2, Gi3)
1 | NDCRDIIQRMHLRQY [ACGs, NDCRDIIQRMHLRQY] | no effect at all |  |  |  | 
2 | DAVTDVIIKNNLKDC [ACGi2, DAVTDVIIKNNLKDC] |  | decreased | to the basal level | no effect | Gi2 >Gi3 >Gi1
